The values below come from PubChem BioAssay AID260 (DTP/NCI, 2004).

This assay has as its system CD2F1 mice, intracerebral L1210 leukemia, survival T/C. In words: NCI In Vivo Anticancer Drug Screen. Data for tumor model L1210 Leukemia (intracerebral) in CD2F1 (CDF1) mice. The conditions noted are these: higher T/C = longer survival. The protocol: The antitumor activity of compounds was measured in mice bearing transplantable tumors. Survival or tumor size were measured and the results are expressed as the measurement made in the treated group (T) divided by the measurement made in the vehicle treated control group (C). The tumor model used in this assay is L1210 Leukemia (intracerebral) in CD2F1 (CDF1) mice

[1] abbreviates: T/C endpoint: median survival time, dose: 640.0 mg/kg/injection, schedule: Q01DX001 (ip), vehicle: saline.
The mark [2] stands for this setting: T/C endpoint: mean survival time, dose: 2.0 mg/kg/injection, schedule: Q01DX009 (ip), vehicle: saline.

The list does not hold the whole screen: it gathers tests that were run many times, whatever their T/C, doses with no T/C, and many T/C values between a quarter and a half above the control. Other doses and runs of a compound stand elsewhere. T/C: endpoint of the treated group in % of that of the vehicle group. Some entries give survivors of the animals treated and no T/C: the source holds a T/C of zero for them, seemingly a mark for toxic or unscored doses. Some doses without a T/C left all or most animals alive at the check, yet need not have been tolerated: survival well below the control is almost never listed, so the zero probably covers shortened survival too. Survivors were counted at the toxicity check, usually on the fifth day, unless a day is given; later deaths do not show. Schedule codes are those of the source, read here as Q, the interval in days (D) or hours (H), X, the number of doses. Signs of the kind (2×) stand for listed records that agree. Some entries hold several experiments; the values are given in rising order. Where survival is the endpoint, this PubChem deposit counts one and a half times the control or more as active, and values a quarter to a half above the control carry no call in these data; other NCI protocols may use other cut-offs. Some molecules as drawn cover several salts, stereoisomers or complexes of the source; a dose is that of the sample tested. Some T/C values carry the count of animals alive at the toxicity check (mostly the fifth day); without a count, all were alive then.

Turning to `Nc1ncnc2c1ncn2C1OC(COP(=O)(O)O)C(O)C1O` (centres undefined), the T/C runs as follows: (T/C endpoint: median survival time, dose: 800.0 mg/kg/injection, schedule: Q01DX009 (ip), vehicle: saline) 125 % of control; (T/C endpoint: median survival time, dose: 1600.0 mg/kg/injection, schedule: Q01DX009 (ip), vehicle: saline) 127 % of control.
`O=P1(N(CCCl)CCCl)NCCCO1` (centres undefined): the T/C by setting is: (T/C endpoint: mean survival time, dose: 100.0 mg/kg/injection, schedule: Q01DX001 (ip), vehicle: saline) 129 % of control; (T/C endpoint: mean survival time, dose: 200.0 mg/kg/injection, schedule: Q01DX001 (ip), vehicle: saline) 127 % of control. Besides, the survivor count by setting is: (T/C endpoint: mean survival time, dose: 400.0 mg/kg/injection, schedule: Q01DX001 (ip), vehicle: saline) 5 of 8; under setting [1], 1 of 10.
With `C[C@@H](CN1CC(=O)NC(=O)C1)N1CC(=O)NC(=O)C1`, the T/C reads like this: (T/C endpoint: mean survival time, dose: 16.0 mg/kg/injection, schedule: Q01DX009 (ip), vehicle: water) 128 % of control; (T/C endpoint: mean survival time, dose: 32.0 mg/kg/injection, schedule: Q01DX009 (ip), vehicle: water) 146 % of control; (T/C endpoint: mean survival time, dose: 128.0 mg/kg/injection, schedule: Q01DX009 (ip), vehicle: water) 133 % of control.
In the case of `CCCCN(C)N=Nc1ccc([N+](=O)[O-])cc1C(N)=O`, the survivor count (T/C endpoint: median survival time, dose: 512.0 mg/kg/injection, schedule: Q01DX005 (ip), vehicle: saline with Tween-80) is 6 of 6.
Turning to `O=P1(NCCCl)OCCCN1CCCl` (centres undefined), the T/C reads like this: (T/C endpoint: mean survival time, dose: 100.0 mg/kg/injection, schedule: Q01DX001 (ip), vehicle: water) 129 % of control; (T/C endpoint: mean survival time, dose: 200.0 mg/kg/injection, schedule: Q01DX001 (ip), vehicle: water) 137 % of control; (T/C endpoint: mean survival time, dose: 400.0 mg/kg/injection, schedule: Q01DX001 (ip), vehicle: water) 148 % of control [7 of 8 alive]. The survivor count (T/C endpoint: mean survival time, dose: 800.0 mg/kg/injection, schedule: Q01DX001 (ip), vehicle: water) is given as 0 of 8 and the survivor count under setting [1] is 6 of 10.
For `C#C[C@]1(O)CC[C@H]2[C@@H]3CCc4cc(O)ccc4[C@H]3CC[C@@]21C`, the survivor count (T/C endpoint: median survival time, dose: 512.0 mg/kg/injection, schedule: Q01DX009 (ip), vehicle: saline with Tween-80) is 0 of 6 and 6 of 10.
Turning to `C#CCN(C)/N=N/c1nc[nH]c1C(N)=O`, the T/C (T/C endpoint: median survival time, dose: 32.0 mg/kg/injection, schedule: Q01DX005 (ip), vehicle: saline with Tween-80) is 125 % of control. For the setting “T/C endpoint: median survival time, dose: 256.0 mg/kg/injection, schedule: Q01DX005 (ip), vehicle: saline with Tween-80”, the survivor count is reported as 0 of 6.
Consider `CN(C)N=Nc1ccc(C(N)=O)cc1`, for which the T/C (T/C endpoint: median survival time, dose: 64.0 mg/kg/injection, schedule: Q01DX005 (ip), vehicle: saline with Tween-80) was 139 % of control.
With `CN(C)CC(=O)c1ccc(O)c(O)c1`, the survivor count (T/C endpoint: median survival time, dose: 200.0 mg/kg/injection, schedule: Q01DX005 (ip), vehicle: saline) is given as 6 of 10.
As for `CN(Cc1cnc2nc(N[Si](C)(C)C)nc(N[Si](C)(C)C)c2n1)c1ccc(C(=O)NC(CCC(=O)O[Si](C)(C)C)C(=O)O[Si](C)(C)C)cc1` (centres undefined), the T/C (T/C endpoint: median survival time, dose: 7.5 mg/kg/injection, schedule: Q04DX003 (ip), vehicle: saline) was 128 % of control; the T/C (T/C endpoint: median survival time, dose: 15.0 mg/kg/injection, schedule: Q04DX003 (ip), vehicle: saline) is 135 % of control; the T/C (T/C endpoint: median survival time, dose: 120.0 mg/kg/injection, schedule: Q04DX003 (ip), vehicle: saline) is 142 % of control.
`Nc1ncn(C2OC(CO)C(O)C2O)c(=O)n1` (centres undefined): the T/C was 127 and 128 % of control (T/C endpoint: mean survival time, dose: 0.75 mg/kg/injection, schedule: Q01DX009 (ip), vehicle: saline); 128 % of control (T/C endpoint: median survival time, dose: 0.38 mg/kg/injection, schedule: Q01DX009 (ip), vehicle: saline); 136 % of control (T/C endpoint: median survival time, dose: 0.57 mg/kg/injection, schedule: Q03HX024 (ip), vehicle: saline); 136 % of control (T/C endpoint: median survival time, dose: 0.75 mg/kg/injection, schedule: Q01DX009 (ip), vehicle: saline); 137 % of control (T/C endpoint: median survival time, dose: 1.13 mg/kg/injection, schedule: Q03HX024 (ip), vehicle: saline); 138 % of control (T/C endpoint: median survival time, dose: 1.5 mg/kg/injection, schedule: Q01DX009 (ip), vehicle: saline). Also, the T/C is, setting by setting: (T/C endpoint: median survival time, dose: 1.56 mg/kg/injection, schedule: Q01DX009 (ip), vehicle: saline) 139 % of control; (T/C endpoint: median survival time, dose: 3.0 mg/kg/injection, schedule: Q01DX009 (ip), vehicle: saline) 139 % of control; (T/C endpoint: median survival time, dose: 4.0 mg/kg/injection, schedule: Q01DX005 (ip), vehicle: water) 137 % of control; (T/C endpoint: median survival time, dose: 37.5 mg/kg/injection, schedule: Q03HX024 (ip), vehicle: saline) 128 % of control; (T/C endpoint: median survival time, dose: 200.0 mg/kg/injection, schedule: Q01DX009 (ip), vehicle: saline) 138 % of control. Moreover, the survivor count is, setting by setting: (T/C endpoint: mean survival time, dose: 1.5 mg/kg/injection, schedule: Q01DX009 (ip), vehicle: saline) 0 of 6 and 4 of 6; (T/C endpoint: mean survival time, dose: 3.0 mg/kg/injection, schedule: Q01DX009 (ip), vehicle: saline) 0 of 6; (T/C endpoint: mean survival time, dose: 6.0 mg/kg/injection, schedule: Q01DX009 (ip), vehicle: saline) 0 of 6; (T/C endpoint: median survival time, dose: 9.0 mg/kg/injection, schedule: Q03HX024 (ip), vehicle: saline) 4 of 6.
Take `CN(CCO)C1=C(N2CC2)C(=O)C(N(C)CCO)=C(N2CC2)C1=O`: the T/C (T/C endpoint: mean survival time, dose: 1.0 mg/kg/injection, schedule: Q01DX009 (ip), vehicle: saline) is 130 % of control; the T/C under setting [2] was 132 and 136 % of control; the T/C (T/C endpoint: mean survival time, dose: 4.0 mg/kg/injection, schedule: Q01DX009 (ip), vehicle: saline) is 145 % of control.
Consider `O=C1C=C(N2CC2)C(=O)C=C1N1CC1`, for which the survivor count under setting [2] is 2 of 6, 4 of 6, 6 of 6.
On to `CN(Cc1cnc2nc(N)nc(N)c2n1)c1ccc(C(=O)N[C@@H](CCC(=O)O)C(=O)O)cc1`, for which the T/C (T/C endpoint: median survival time, dose: 4.6 mg/kg/injection, schedule: Q04DX003 (ip), vehicle: saline) is 128 % of control and the T/C (T/C endpoint: median survival time, dose: 9.2 mg/kg/injection, schedule: Q04DX003 (ip), vehicle: saline) is 142 % of control. Moreover, under “T/C endpoint: median survival time, dose: 73.5 mg/kg/injection, schedule: Q04DX003 (ip), vehicle: saline”, the survivor count is listed as 5 of 6.
Turning to `CN(C)N=Nc1ccc(C(=O)O)cc1`, the T/C by setting is: (T/C endpoint: mean survival time, dose: 100.0 mg/kg/injection, schedule: Q01DX009 (ip), vehicle: saline) 147 % of control; (T/C endpoint: mean survival time, dose: 120.0 mg/kg/injection, schedule: Q01DX007 (ip), vehicle: DMSO) 125 % of control.
Regarding `CC1C[C@@H](O)C(NC(=O)N(CCCl)N=O)[C@@H](O)C1` (some centres undefined), the T/C (T/C endpoint: mean survival time, dose: 9.0 mg/kg/injection, schedule: Q01DX001 (ip), vehicle: saline) is 141 % of control. For the same compound, for the setting “T/C endpoint: mean survival time, dose: 67.0 mg/kg/injection, schedule: Q01DX001 (ip), vehicle: saline”, the survivor count is listed as 7 of 10.
As for `CC[n+]1c(-c2ccccc2)c2cc(N)ccc2c2ccc(N)cc21`, the survivor count runs as follows: (T/C endpoint: median survival time, dose: 48.0 mg/kg/injection, schedule: Q01DX005 (ip), vehicle: saline) 9 of 10; (T/C endpoint: median survival time, dose: 96.0 mg/kg/injection, schedule: Q01DX005 (ip), vehicle: saline) 2 of 10.
Consider `COC(=O)c1ccccc1N=NN(C)C`, for which the survivor count by setting is: (T/C endpoint: mean survival time, dose: 20.0 mg/kg/injection, schedule: Q01DX007 (ip), vehicle: other) 6 of 6; (T/C endpoint: mean survival time, dose: 40.0 mg/kg/injection, schedule: Q01DX007 (ip), vehicle: other) 0 of 6.
On to `O=C1c2c(O)ccc(O)c2C(=O)c2c(NCCNCCO)ccc(NCCNCCO)c21`, for which the T/C is 139 % of control (T/C endpoint: median survival time, dose: 1.0 mg/kg/injection, schedule: Q01DX009 (ip), vehicle: saline with Tween-80) and 140 % of control [9 of 10 alive] (T/C endpoint: median survival time, dose: 2.0 mg/kg/injection, schedule: Q01DX009 (ip), vehicle: saline with Tween-80). Moreover, the survivor count was 10 of 10 (2×) (T/C endpoint: median survival time, dose: 8.0 mg/kg/injection, schedule: Q01DX009 (ip), vehicle: saline with Tween-80); 9 of 10 and 10 of 10 (T/C endpoint: median survival time, dose: 16.0 mg/kg/injection, schedule: Q01DX009 (ip), vehicle: saline with Tween-80); 4 of 10 and 6 of 10 (T/C endpoint: median survival time, dose: 32.0 mg/kg/injection, schedule: Q01DX009 (ip), vehicle: saline with Tween-80); 0 of 10 and 1 of 10 (T/C endpoint: median survival time, dose: 64.0 mg/kg/injection, schedule: Q01DX009 (ip), vehicle: saline with Tween-80).
